Data on 2 substances can be found in PMC9681205.

By UniProt entry, the sequences of proteins in these tests, tags left out. Where a name states a change or a piece, a line headed by the entry shows the natural chain unless it says otherwise. Residues count along the entry.
UniProt P49951, residues 1-363: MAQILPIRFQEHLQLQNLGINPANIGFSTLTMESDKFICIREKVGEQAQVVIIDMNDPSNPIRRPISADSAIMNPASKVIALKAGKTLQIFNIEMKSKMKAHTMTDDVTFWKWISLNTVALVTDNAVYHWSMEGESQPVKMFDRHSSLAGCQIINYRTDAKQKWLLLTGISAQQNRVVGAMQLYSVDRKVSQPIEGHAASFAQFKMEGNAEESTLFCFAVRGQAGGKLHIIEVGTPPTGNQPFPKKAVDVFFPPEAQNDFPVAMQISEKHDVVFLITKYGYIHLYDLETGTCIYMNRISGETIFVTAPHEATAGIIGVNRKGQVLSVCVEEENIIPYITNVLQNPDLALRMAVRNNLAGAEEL
UniProt P63010, residues 701-937: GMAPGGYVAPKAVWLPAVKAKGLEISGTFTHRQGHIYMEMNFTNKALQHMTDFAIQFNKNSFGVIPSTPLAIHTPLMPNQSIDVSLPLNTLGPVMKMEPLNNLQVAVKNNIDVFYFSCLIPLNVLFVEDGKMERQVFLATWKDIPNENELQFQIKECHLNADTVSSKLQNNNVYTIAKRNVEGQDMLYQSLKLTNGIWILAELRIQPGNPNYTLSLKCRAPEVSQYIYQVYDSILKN
UniProt P29067: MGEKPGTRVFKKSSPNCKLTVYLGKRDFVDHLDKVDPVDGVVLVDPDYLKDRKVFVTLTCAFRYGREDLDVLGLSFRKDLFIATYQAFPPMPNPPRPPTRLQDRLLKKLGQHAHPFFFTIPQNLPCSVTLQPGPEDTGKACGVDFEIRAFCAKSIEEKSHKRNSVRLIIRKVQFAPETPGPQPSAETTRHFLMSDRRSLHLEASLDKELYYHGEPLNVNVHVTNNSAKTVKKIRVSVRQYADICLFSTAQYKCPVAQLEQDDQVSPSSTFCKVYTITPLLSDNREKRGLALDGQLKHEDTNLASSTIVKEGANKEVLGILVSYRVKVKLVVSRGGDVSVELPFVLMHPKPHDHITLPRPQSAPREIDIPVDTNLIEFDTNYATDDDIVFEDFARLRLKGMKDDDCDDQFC

No constants are given. Whether binding was seen depends on the method and setting. In cells and extracts the contact can be indirect. Some entries that bind do so weakly or less than the wild type.

Assay [1] concerns the target GST-tagged clathrin terminal domain (1–363) (UniProt P49951). Nature of the assay: pull-down; purified GST-tagged protein (1 mg) prebound to glutathione agarose; clarified lysate of βarr1/2 DKO cells (20 mM HEPES pH 7.4, 150 mM NaCl, 2 mM DTT, 5 mM EDTA, 1% NP-40); all samples with 10 μM V2Rpp; 3 hr at 4°C; eluted with 10 mM glutathione; anti-GFP western blot; only the target purified. A general note: Immunoblotting shows a protein as a band on a membrane.

The target of assay [2] is GST-tagged β-appendage of AP2 (701–937) (UniProt P63010). The description is as above.

In the case of “β-arrestin-2-EGFP (from UniProt P29067 1-410)”, the binding result in assay [1] and in assay [2] was “binds” throughout.
For the substance “β-arrestin-2-ΔCT-EGFP (from UniProt P29067 1-372) (domain or fragment)”, the binding entry in assay [1] and in assay [2] was “no binding” in each case.
